Some of the results follow. The main result of the screen is listed elsewhere. These columns were measured beside it and carry no call. The list favours compounds with an active or inconclusive main result. Words in brackets tell the shape of the fitted curve; partial curves, single points and poor fits give uncertain potencies.
Experiment: IkB Signaling
Details: ABC-DLBCL IkBa-CBG/CBR dual luciferase ratio (green luciferase fused to IkBa over red control in OCI-Ly3 lymphoma cells), 4 h
Summary of the method: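 Luminescence ratio of IκBα-fused green versus native red beetle luciferase in OCI-Ly3 cells, 4 h post-doxycycline with compound; red signal alone, scaled from basal (0%) to zero light (-100%), flagged nonspecific or cytotoxic effects.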

[1] = measured here: control luc red channel unless noted

Question: With `CCOc1ccccc1-n1c(SCC(=O)N(C(C)C)C(C)C)nnc1-c1cccnc1` as the compound, how does the AC50 [1] read?
Answer: 15.8 µM [falling, partial curve]

Question: For `COc1ccc(CNC(=O)Cn2ccc3cc(S(=O)(=O)N4CCCCC4)ccc32)cc1OC`, which AC50 [1] is on record?
Answer: 0.02 µM [falling, full curve, poor fit]

Question: With `O=C(CCSCc1cccc(Cl)c1)N1CCN(c2ccc(Cl)cc2)CC1` as the compound, how does the AC50 [1] read?
Answer: 15.8 µM [falling, partial curve]

Question: Which AC50 [1] does the source give for `N#Cc1cccc(-c2nc(NCCN3CCOCC3)c3ccccc3n2)c1` here?
Answer: 7.94 µM [falling, single point] [measured here: IkB-luc green channel]

Question: With `Cc1ccccc1C(=O)N1CC(=O)Nc2ccc(Cl)cc2C1c1ccccc1` (configuration not stated) as the compound, how does the AC50 [1] read?
Answer: 25.1 µM [falling, partial curve]

Question: Which AC50 [1] does the source give for `CCOc1ccc(NS(=O)(=O)c2ccc(C(=O)N(C)C)s2)cc1` here?
Answer: 0.0158 µM [falling, full curve, poor fit]

Question: With `O=C(c1cccc(Cl)c1)N1c2nc(-c3ccco3)nn2C2(CCCCC2)[C@@H]2CCCC[C@@H]21` as the compound, how does the AC50 [1] read?
Answer: 31.6 µM [falling, single point]

Question: For `C#CCn1c(=NC(=O)c2ccc3c(c2)OCCO3)sc2cc(OC)c(OC)cc21`, which AC50 [1] is on record?
Answer: 0.398 µM [falling, full curve, poor fit]

Question: With `COc1ccc(NC(=O)CSc2nnc(CNC(=O)c3ccco3)n2-c2ccccc2OC)cc1` as the compound, how does the AC50 [1] read?
Answer: 2 µM [falling, full curve, poor fit]

Question: For `Cc1nn(-c2ccc(N3CCCCC3)nn2)c(C)c1CCC(=O)Nc1ccc(F)cc1F`, which AC50 [1] is on record?
Answer: 12.6 µM [falling, partial curve]

Question: With `COc1cccc(-c2cc(C(=O)N3CCc4ccccc4C3)no2)c1` as the compound, how does the AC50 [1] read?
Answer: 20 µM [falling, single point]

Question: Which AC50 [1] does the source give for `Cc1nc2ccc(S(=O)(=O)CCC(=O)Nc3ccc(Cl)cc3)cc2s1` here?
Answer: 12.6 µM [falling, partial curve]

Question: For `COC(=O)c1cc(-c2ccc3c(c2)OCO3)nc2ccccc12`, which AC50 [1] is on record?
Answer: 20 µM [falling, partial curve]

Question: With `COc1ccc(S(=O)(=O)N2CCN(Cc3ccc(Cl)cc3)CC2)cc1` as the compound, how does the AC50 [1] read?
Answer: 25.1 µM [falling, partial curve]

Question: For `CCC(Sc1nc2ccccc2s1)C(=O)Nc1nnc(C)s1` (configuration not stated), which AC50 [1] is on record?
Answer: 20 µM [falling, partial curve]

Question: For `O=C(Nc1ccc2c(c1)OCO2)c1nn(-c2ccccc2)c(=O)c2ccccc12`, which AC50 [1] is on record?
Answer: 25.1 µM [falling, partial curve]

Question: With `CC1(C)N=C(SCc2ccccc2Cl)c2ccccc2N1` as the compound, how does the AC50 [1] read?
Answer: 39.8 µM [falling, single point]

Question: Which AC50 [1] does the source give for `Cc1cccc(-c2noc(-c3cccnc3NCc3ccc(Cl)cc3)n2)c1` here?
Answer: 3.98 µM [falling, full curve]

Question: For `COc1ccc2c(c1)sc1ncc(C(=O)NCc3ccccc3F)c(=O)n12`, which AC50 [1] is on record?
Answer: 5.01 µM [rising, partial curve]

Question: With `COc1ccc(S(=O)(=O)Nc2ccc3oc4c(c3c2)CCCC4)cc1` as the compound, how does the AC50 [1] read?
Answer: 39.8 µM [falling, single point]

Question: Which AC50 [1] does the source give for `Cc1cc(Cl)ccc1OCC(=O)Nc1ccccc1N1CCOCC1` here?
Answer: 12.6 µM [falling, partial curve]

Question: For `CCOc1ccccc1CNC(=O)c1ccc2c(c1)N(Cc1ccc(C)cc1)CCS2`, which AC50 [1] is on record?
Answer: 0.158 µM [falling, full curve]

Question: With `CC(=O)c1cccc(NC(=O)CSc2nc(=O)n(Cc3ccco3)c3c2CCC3)c1` as the compound, how does the AC50 [1] read?
Answer: 25.1 µM [falling, partial curve]

Question: For `Cc1oc(-c2cccc(Cl)c2)nc1CS(=O)(=O)CC(=O)NC(C)CCc1ccccc1` (configuration not stated), which AC50 [1] is on record?
Answer: 20 µM [falling, partial curve]

Question: With `Cc1ccc(NC(=O)C2CCCN(C(=O)c3cnn(-c4ccc(F)cc4)c3-n3cccc3)C2)c(Cl)c1` (configuration not stated) as the compound, how does the AC50 [1] read?
Answer: 15.8 µM [falling, partial curve]

Question: Which AC50 [1] does the source give for `O=C(NCCc1ccccc1Cl)C1CCN(c2nc3ccccc3nc2C(F)(F)F)CC1` here?
Answer: 6.31 µM [rising, partial curve, poor fit]

Question: For `O=C(c1cccc(C(=O)N2CCN(c3ccccc3F)CC2)c1)N1CCN(c2ccccc2F)CC1`, which AC50 [1] is on record?
Answer: 3.16 µM [falling, full curve]

Question: For `CCOc1ccc(/C=C/c2nc(C#N)c(NCc3ccccc3)o2)cc1`, which AC50 [1] is on record?
Answer: 1 µM [rising, full curve]

Question: For `O=C(CCC1N=C2c3ccccc3N=C(SCc3ccc(F)cc3)N2C1=O)NCCc1ccccc1` (configuration not stated), which AC50 [1] is on record?
Answer: 3.16 µM [falling, partial curve]

Question: For `CCOc1ccc(NC(=O)c2c(NCc3cccc(OC)c3OC)sc3c2CCC3)cc1`, which AC50 [1] is on record?
Answer: 20 µM [falling, single point]

Question: Which AC50 [1] does the source give for `CCc1ccc(NC(=O)CN(c2ccc(Cl)cc2)S(=O)(=O)c2ccsc2C(=O)OC)cc1` here?
Answer: 25.1 µM [falling, partial curve]

Question: With `Nc1c(C(=O)Nc2ccccc2Cl)c2ccccn2c1C(=O)c1ccccc1` as the compound, how does the AC50 [1] read?
Answer: 0.2 µM [falling, full curve, poor fit]

Question: With `Cc1ccc(C)c(CN2C(=O)C(O)(c3c(C)[nH]c4ccccc34)c3ccccc32)c1` (configuration not stated) as the compound, how does the AC50 [1] read?
Answer: 25.1 µM [falling, single point]

Question: For `O=C(C1CCCN(S(=O)(=O)c2cccc3nsnc23)C1)N1CCN(c2ccccc2)CC1` (configuration not stated), which AC50 [1] is on record?
Answer: 15.8 µM [falling, partial curve]

Question: What does the source list for `O=C1NCN(c2ccccc2)C12CCN(CCCC(c1ccc(F)cc1)c1ccc(F)cc1)CC2`?
Answer: AC50 (measured here: IkB-luc green channel): 31.6 µM [falling, partial curve, poor fit]; AC50 (measured here: control luc red channel): 31.6 µM [falling, partial curve]

Question: For `CCOC(=O)N1CCN(C(=O)CN(c2ccccc2F)S(=O)(=O)c2ccc(C)cc2)CC1`, which AC50 [1] is on record?
Answer: 20 µM [falling, partial curve]

Question: With `O=C(NCc1cccs1)c1ccc2c(c1)N(Cc1cccc(F)c1)C(=O)c1ccccc1S2` as the compound, how does the AC50 [1] read?
Answer: 31.6 µM [falling, partial curve]

Question: With `CCOC(=O)c1c(C)[nH]c(C)c1S(=O)(=O)NCC(=O)NCc1cccc(Br)c1` as the compound, how does the AC50 [1] read?
Answer: 39.8 µM [falling, partial curve, poor fit]

Question: Which AC50 [1] does the source give for `Cc1ccccc1Cn1nc(C)c(NC(=O)c2cc3nc(-c4ccco4)cc(C(F)(F)F)n3n2)c1C` here?
Answer: 25.1 µM [falling, partial curve]

Question: With `O=C(Nc1ccc(Oc2ccccc2)cc1)c1ccc(F)c(S(=O)(=O)N2CCN(c3ccccc3F)CC2)c1` as the compound, how does the AC50 [1] read?
Answer: 7.94 µM [falling, partial curve]

Question: Which AC50 [1] does the source give for `COc1cccc(NC(=O)/C(C#N)=C/c2ccc(-c3ccc(C)cc3)o2)c1` here?
Answer: 10 µM [falling, partial curve]

Question: Which AC50 [1] does the source give for `COc1cccc(C(=O)COC(=O)c2cc(-c3cccs3)nc3ccccc23)c1` here?
Answer: 39.8 µM [falling, single point]

Question: With `Cc1ccccc1OCC(=O)Nc1nnc(SCc2cc(=O)n3cc(Cl)ccc3n2)s1` as the compound, how does the AC50 [1] read?
Answer: 2.51 µM [falling, full curve]

Question: Which AC50 [1] does the source give for `Cc1ccc(-n2nc(C)c(C(=O)NCCCN3CCN(c4cccc(Cl)c4)CC3)c2-n2cccc2)cc1` here?
Answer: 10 µM [falling, partial curve]

Question: With `Cc1ccc(NC(=O)c2cccc(NC(=O)N3CCSc4ncccc43)c2)cc1F` as the compound, how does the AC50 [1] read?
Answer: 3.98 µM [falling, partial curve]

Question: Which AC50 [1] does the source give for `CCCN1C(=O)c2oc3cc(C)cc(C)c3c(=O)c2C1c1ccc(F)cc1` (configuration not stated) here?
Answer: 0.251 µM [rising, partial curve]

Question: For `COc1ccc(-c2cc(C(F)(F)F)nc(SCC(=O)Nc3ccc(O)cc3)n2)cc1OC`, which AC50 [1] is on record?
Answer: 0.126 µM [rising, full curve]

Question: For `CCCNc1ncnc2c1c(-c1ccccc1)cn2-c1ccccc1`, which AC50 [1] is on record?
Answer: 12.6 µM [falling, single point]

Question: Which AC50 [1] does the source give for `C[C@@]12CCC(=O)C=C1CC[C@H]1[C@@H]2[C@@H](O)C[C@]2(C)[C@@H]1CC[C@@]2(O)C(=O)CO` here?
Answer: 15.8 nM [rising, full curve] [measured here: IkB-luc green channel]

Question: Which AC50 [1] does the source give for `Cc1coc2c(C)c3oc(=O)c(CCC(=O)N4CCCCC4)c(C)c3cc12` here?
Answer: 39.8 µM [falling, single point]

Question: Which AC50 [1] does the source give for `O=C(Cn1ccc2cc(S(=O)(=O)N3CCCCCC3)ccc21)NCc1cccc(Cl)c1` here?
Answer: 0.631 µM [falling, full curve, poor fit]

Question: For `O=C(Cc1coc2ccc3ccccc3c12)N1CCN(c2ncccn2)CC1`, which AC50 [1] is on record?
Answer: 25.1 µM [falling, single point]

Question: Which AC50 [1] does the source give for `Cc1cc(O)cc(O)c1-c1onc(C(F)(F)F)c1-c1cscn1` here?
Answer: 12.6 µM [falling, partial curve]

Question: With `COCCn1c(C)cc(O)c(C(c2ccccc2Cl)N2CCCCC2)c1=O` (configuration not stated) as the compound, how does the AC50 [1] read?
Answer: 0.0501 µM [falling, full curve]

Question: For `CCCN1CCN(CCCNC(=O)c2cc3c(s2)-c2ccccc2OC3)CC1`, which AC50 [1] is on record?
Answer: 12.6 µM [falling, partial curve]

Question: With `N#Cc1ccccc1OCC(=O)N1CCN(c2ccccc2)CC1` as the compound, how does the AC50 [1] read?
Answer: 39.8 µM [falling, single point]

Question: For `N=C(C[C@@H](O)COc1ccccc1-c1ccccc1)N1CCCCC1`, which AC50 [1] is on record?
Answer: 31.6 µM [falling, partial curve]

Question: Which AC50 [1] does the source give for `Cc1nc2c(c(C)c1CCC(=O)Nc1ccc(F)cc1)c(=O)n(C)c(=O)n2C` here?
Answer: 6.31 µM [falling, partial curve]

Question: Which AC50 [1] does the source give for `CCc1cccc(-n2nnc(S(=O)(=O)c3ccc(OC)cc3)c2C)c1` here?
Answer: 2.51 µM [falling, partial curve]

Question: With `CCOC(=O)c1c(C)n(C)c2ccc(OCC(O)Cn3nc(C)c(Br)c3C)cc12` (configuration not stated) as the compound, how does the AC50 [1] read?
Answer: 15.8 µM [falling, partial curve]

Question: For `N#C/C(=C\c1cccs1)Sc1nc2ccccc2s1`, which AC50 [1] is on record?
Answer: 31.6 µM [falling, single point]

From PubChem BioAssay AID445 (National Center for Advancing Translational Sciences (NCATS), 2006)
